## Results of single-concentration screens

Data taken from ChEMBL document CHEMBL3988442, “University of Dundee, Small-Polar-MMV Screening Library” (2021).

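Whole-parasite assay of Trypanosoma brucei over 72 hours; the read-out is not stated. Tested at 30 µM. Direction is inferred from retests: higher values go with stronger inhibition. Values scatter widely below zero; nearly all retest evidence comes from the higher of the two concentrations used. Size under these conditions: about 64,000 compounds, about 940 of them at 50% or above in at least one test.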

The filed quantity is “Percent Effect” (%).
The record does not define 0% and 100%; most values in the screen are far below 50% and negative numbers occur (in some assays of this library far below -100).
The compounds are a random part of those screened.

| compound | effect |
|---|---|
| `O=C(CCc1ccc(Cl)s1)NCc1nnc2n1CCCCC2` | 20.86% |
| `CC(C)(C)C(CCO)NC(=O)Nc1ccncc1` (centres undefined) | -3.299% |
| `CNC(=O)C(C)(C)CNC(=O)Nc1cc(C)ccn1` | 0.6944% |
| `COCCC(=O)N1Cc2ccccc2OC2(CCOCC2)C1` | -16.43% |
| `Cc1cc(C(=O)N2C[C@H](CO)C[C@H](CN3CCOCC3)C2)nc(C)n1` | -24.19% |
| `COc1cc(N2CCN(Cc3ccc(C)o3)C(CCO)C2)nc(N)n1` (centres undefined) | -34.58% |
| `Cc1ocnc1C(=O)Nc1ccc(-c2nnc(N(C)C)o2)cc1` | 5.255% |
| `CS(=O)(=O)c1ccccc1NCc1ccc(Cn2ccnc2)cc1` | -15.33% |
| `CN(C)C1CC2(CCN(C(=O)C3(C#N)CC3)CC2)c2ccccc21.O=C(O)C(F)(F)F` (centres undefined) | -16.78% |
| `CCC(C)c1ccc(NC(=O)C2CCN(C(=O)N(C)C)CC2)cc1` (centres undefined) | 12.88% |
| `O=C(O)C(F)(F)F.O=C(O)C(F)(F)F.[H][C@@]12COC[C@]1(C(=O)NCc1ccccn1)CN(Cc1scnc1C)C2` | -16.22% |
| `Cc1ccc(C(=O)N2CCCCC2CNC(N)=O)s1` (centres undefined) | -9.641% |
| `COc1ccc(C[C@H]2CN(C(=O)c3ccncc3)CC[C@@H]2OC)cc1.O=C(O)C(F)(F)F` | -25.11% |
| `CNc1cc2c(nn1)CCN(C(=O)c1cc(C)n(C3CC3)c1C)C2` | 1.386% |
| `O=C(NCC1CC1)C1CN(C(=O)c2cnccn2)CC12CCOCC2` (centres undefined) | -60.84% |
| `[H][C@]12CCN(C(=O)C3CCOC3)C[C@@]1([H])OCCN(S(C)(=O)=O)C2` (some centres undefined) | -95.49% |
| `CC(C)c1noc(CCCC(=O)NC2CCS(=O)(=O)C2)n1` (centres undefined) | -19.64% |
| `COc1cccc2c1OCC(C(=O)N1CCC(N3CCSCC3)CC1)C2` (centres undefined) | -35.78% |
| `O=C1CCc2cc(NC(=O)N3CCCN(Cc4cccs4)CC3)ccc21` | -5.651% |
| `Cc1occc1C(=O)N1CCC2(CCN(Cc3cccs3)C2)CC1.O=C(O)C(F)(F)F` | -50.14% |
| `CC[C@H]1COCCN1C(=O)c1cnc(-c2ccccc2)nc1C` | -58.48% |
| `[H][C@]12CC[C@]([H])(CN(Cc3ccccc3)C1)N(C(=O)CSC)C2` | -69.54% |
| `Cc1noc([C@@H](C)NCc2cccc(Cl)c2)c1C(=O)O.Cl` | -38.39% |
| `CN(Cc1ccsc1)C(=O)c1ccc2c(c1)NC(=O)CO2` | 41.54% |
| `CC(C)(C)n1nc(C(=O)NCC2(C(N)=O)CCOCC2)cc1C1CC1` | -14.42% |
| `CC(C)OCCN1CCN(C(=O)c2cccc(CC#N)c2)CC1` | 1.631% |
| `COc1cc(Cl)c(NC(=O)c2cc3c([nH]c2=O)CCCC3=O)cc1OC` | 13.49% |
| `CCC(CC)c1cc(C(=O)N2CCN(CC(N)=O)CC2)on1` | -20.83% |
| `c1ccc(-n2nnnc2CN2CCCC(Cn3cncn3)C2)cc1` (centres undefined) | -5.407% |
| `COc1cc(Cl)ccc1C(=O)NCc1nncn1C` | -15.98% |
| `COc1ccc(Cl)cc1CN(C)CC(=O)/N=c1\cc[nH]n1C(C)C1CC1` (centres undefined) | -41.83% |
| `COCCN1CC2(CCC1=O)CCN(Cc1nnc(C)o1)CC2` | -60.43% |
| `Cl.Cl.NCC(=O)N1CCCC(c2ccnc(Nc3cnccn3)n2)C1` (centres undefined) | -0.3529% |
| `CN(C)c1cc(C2CCCN2Cc2ccccc2OCC(=O)O)ccn1` (centres undefined) | 5.913% |
| `COc1ccc(F)c(F)c1CN1CC(=O)N(c2ccccc2C)CC1C` (centres undefined) | -19.18% |
| `CN1CCC2(CCN(CC3CC3)CC2)C1=O.O=C(O)C(F)(F)F` | -27.84% |
| `CN(C)CCNCC1COCc2c(-c3ccnn3C)nnn2C1` (centres undefined) | -57.49% |
| `CC(C)N1CCC(Cc2cnc(-c3cccc(C(=O)O)c3)cn2)C1` (centres undefined) | 14.08% |
| `CCc1n[nH]c(C(=O)N2CCN(c3ccc4ccccc4c3)CC2)c1C` | -53.23% |
| `Fc1cccc(N2CCc3ncnc(C4CC4)c3CC2)c1` | -23.02% |
| `O=C(O)C(F)(F)F.O=C(O)C(F)(F)F.c1cc(CN2CCC3(CC2)COC(COCC2CC2)C3)ccn1` (centres undefined) | -29.98% |
| `O=C(NCCn1ccc(-c2ccccn2)n1)C1CC1` | -22.29% |
| `COCc1noc(CNc2nc(C3CCCC3)nc3c2CCNCC3)n1` | -8.203% |
| `CCNc1nc(-c2cccnc2)c(-c2ccnc(NS(C)(=O)=O)n2)s1` | 1.048% |
| `COc1ccccc1C1(CNc2snc(Cl)c2C#N)CCCC1` | 35.81% |
| `O=C(CN1CC(c2nc(-c3cccs3)no2)C1)NCC1CCCO1.O=C(O)C(=O)O` (centres undefined) | 15.69% |
| `Cc1cc(NC(=O)NCC2CCN(C(C)C)C2)no1` (centres undefined) | -3.959% |
| `O=C(Nc1cc(C2CCOCC2)[nH]n1)c1cc[nH]n1` | -0.6985% |
| `CCc1nc(C2CCCN2Cc2nnc(Cc3ccccc3)o2)no1` (centres undefined) | 5.136% |
| `Cc1c(S(=O)(=O)N2CCOCC2)cc2c(C)cc(=O)n3c2c1CCC3` | -22.92% |
| `COC(=O)c1ccc(C2CC(=O)Nc3c2cnn3C)cc1` (centres undefined) | -26.14% |
| `CCOC(=O)c1cnn(-c2cc(C)ccn2)c1N` | 2.581% |
| `Cc1cccc(NS(=O)(=O)c2cnn(C)c2)c1C#N` | -32.8% |
| `Cn1ccc(C(=O)NC2CCC23CCN(Cc2cccnc2)CC3)c1.O=C(O)C(F)(F)F.O=C(O)C(F)(F)F` (centres undefined) | -9.338% |
| `Cc1noc(COCC(=O)Nc2cc(C)c(Br)cn2)n1` | 12.06% |
| `[H][C@@]12OCCN(C(=O)c3ccnnc3)[C@@]1([H])CC[C@@H]2OCc1cccnc1` | -1.527% |
| `COCCNC(=O)CNC(=O)c1nc(Cc2c(Cl)cccc2Cl)no1` | -2.893% |
| `O=S(=O)(c1ccccc1)N1CCC2(CCCN2Cc2cccc(F)c2)C1` (centres undefined) | 56.8% |
| `[H][C@@]12CS(=O)(=O)C[C@]1([H])N(C(=O)c1cnc(C)cn1)CCN2C(=O)C(C)C` | -46.4% |
| `Cc1nc(COc2nc(C(C)C)no2)cs1` | -35.43% |
| `CS(=O)(=O)N1CCC2(CC1)CC(NCc1ccccn1)c1ccccc12` (centres undefined) | -2.8% |
| `[H][C@]12OCCN(Cc3ccc(C)o3)[C@@]1([H])CC[C@@H]2OCc1cccnc1` | -89.75% |
| `Cc1nc(-c2ccc(C(=O)O)cc2)cc(C2CCN(C(C)C)C2)n1` (centres undefined) | 9.319% |
| `O=c1[nH]c2c(c(=O)n1C1CCCCC1)CCC2NCc1ccccc1` (centres undefined) | -25.27% |
| `O=C(Nc1ccc(Cl)cn1)c1nn(C2CCS(=O)(=O)C2)c2c1CCCC2` (centres undefined) | -33.39% |
| `Cc1n[nH]c(C)c1C1COCCN1C(=O)c1ccccc1` (centres undefined) | -45.29% |
| `N#Cc1cccnc1NCCNC(=O)N1CCCC(C(F)(F)F)C1` (centres undefined) | 7.676% |
| `Cc1ccc(S(=O)(=O)NC(=O)c2cccc3c2OCCO3)c(C)c1` | -29.12% |
| `O=C1CCC(C(=O)Nc2cnn(-c3ccccc3Br)c2)N1` (centres undefined) | -22.89% |
| `Cc1cc(C)cc(C(C(=O)O)N(C)CCCN2CCOCC2)c1` (centres undefined) | -15.82% |
| `CC(C)c1noc(CN2CCN(C(=O)c3ccncc3F)CC2)n1` | -4.312% |
| `COc1cccc(COCC(=O)N2CCCC(n3ccnc3C)C2)c1` (centres undefined) | -17.79% |
| `O=C(O)C(F)(F)F.[H][C@@]12CN(Cc3ccsc3)C[C@]1([H])OCCN2c1ccnc(N(C)C)n1` | 21.55% |
| `COc1ccc(Cn2ccnc2)cc1F` | -21.27% |
| `C[S+]([O-])CCNC(=O)N1CCSC2(CCCCC2)C1` (centres undefined) | -10.19% |
| `CCc1ccccc1C(=O)N1CCN(S(C)(=O)=O)[C@@H](C)C1` | -59.54% |
| `c1ccc(Cc2nc(C3CC3)nn2-c2ccc3c(c2)OCCO3)nc1` | -43.39% |
| `Cc1ccc(N2CCCC3(CCCC(=O)N3)C2)nn1.O=C(O)C(F)(F)F` (centres undefined) | -68.95% |
| `CNc1nc(CN2C[C@@H](NC(C)=O)[C@H](c3ccc(C)o3)C2)cs1` | -25.7% |
| `COCCN1C(=O)c2ccc(C(=O)NCCc3c[nH]cn3)cc2C1=O` | -44.97% |
| `Cc1ccc(Cl)c(NC(=O)NC2(C)CCOC2)c1` (centres undefined) | -2.554% |
| `COc1ccccc1OCCC(=O)NCc1ncc(C)c(OC)c1C` | -4.074% |
| `[H][C@]12CN(CCOC)C(=O)[C@@]1([H])CN(S(=O)(=O)c1cccs1)C2` | -23.22% |
| `N[C@H]1CCCN(C(=O)c2cnc(COc3ccccc3)nc2O)C1` | -20.7% |
| `Cc1nc(O)cc(C2CCCN(C(=O)COCc3ccccc3)C2)n1` (centres undefined) | -32.48% |
| `CCn1nc(CC(C)C)cc1C(=O)N1C[C@H](O)[C@@H](N2CCCCC2)C1` | 18.64% |
| `[H][C@]12CCC[C@@]1(COc1ccccn1)CN(C(=O)Cc1ccccn1)C2` | 35.52% |
| `CCc1noc(CN(CC)Cc2cc3ccc(C)cc3[nH]c2=O)n1` | -20.39% |
| `O=C(O)C(F)(F)F.O=C(O)C(F)(F)F.[H][C@]12CCN(c3cnn(C)c3)C(=O)[C@]1([H])CN(Cc1ccncc1)C2` | -21.21% |
| `Cn1ccnc1C1CCN(S(=O)(=O)c2ccc3[nH]c(=O)[nH]c3c2)CC1` | -24.7% |
| `CCCC(=O)n1ccn(S(=O)(=O)c2ccc(C)cc2)c1=O` | -5.133% |

Some entries from above, unchanged:

{"compound": "[H][C@]12CCC[C@@]1(COc1ccccn1)CN(C(=O)Cc1ccccn1)C2", "effect": 35.52}
{"compound": "CCc1nc(C2CCCN2Cc2nnc(Cc3ccccc3)o2)no1", "stereo": "centres undefined", "effect": 5.136}
{"compound": "COCCNC(=O)CNC(=O)c1nc(Cc2c(Cl)cccc2Cl)no1", "effect": -2.893}
{"compound": "CCc1ccccc1C(=O)N1CCN(S(C)(=O)=O)[C@@H](C)C1", "effect": -59.54}
{"compound": "O=S(=O)(c1ccccc1)N1CCC2(CCCN2Cc2cccc(F)c2)C1", "stereo": "centres undefined", "effect": 56.8}
{"compound": "O=C(O)C(F)(F)F.O=C(O)C(F)(F)F.[H][C@@]12COC[C@]1(C(=O)NCc1ccccn1)CN(Cc1scnc1C)C2", "effect": -16.22}
{"compound": "CC(C)N1CCC(Cc2cnc(-c3cccc(C(=O)O)c3)cn2)C1", "stereo": "centres undefined", "effect": 14.08}
{"compound": "CN(C)CCNCC1COCc2c(-c3ccnn3C)nnn2C1", "stereo": "centres undefined", "effect": -57.49}
{"compound": "COCCN1CC2(CCC1=O)CCN(Cc1nnc(C)o1)CC2", "effect": -60.43}